Measurements as given in US20200181255A1 (Amgen, published 2020).
Positions count from the first letter of the chain named. No constants are given. Whether binding was seen depends on the method and setting. Some entries that bind do so weakly or less than the wild type. Values belong to the binder of their own block, whether it stands above or below them.

How the values were obtained:
[1] = target: T1, recombinant human IL-23 (human, UniProt Q9NPF7 20-189; P29460 23-328); test: KinExA
T1 sequence 1: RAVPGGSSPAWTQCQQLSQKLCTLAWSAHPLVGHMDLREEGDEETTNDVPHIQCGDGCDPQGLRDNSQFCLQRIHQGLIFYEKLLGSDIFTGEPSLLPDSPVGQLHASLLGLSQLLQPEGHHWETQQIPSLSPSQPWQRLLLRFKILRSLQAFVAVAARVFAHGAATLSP
T1 sequence 2: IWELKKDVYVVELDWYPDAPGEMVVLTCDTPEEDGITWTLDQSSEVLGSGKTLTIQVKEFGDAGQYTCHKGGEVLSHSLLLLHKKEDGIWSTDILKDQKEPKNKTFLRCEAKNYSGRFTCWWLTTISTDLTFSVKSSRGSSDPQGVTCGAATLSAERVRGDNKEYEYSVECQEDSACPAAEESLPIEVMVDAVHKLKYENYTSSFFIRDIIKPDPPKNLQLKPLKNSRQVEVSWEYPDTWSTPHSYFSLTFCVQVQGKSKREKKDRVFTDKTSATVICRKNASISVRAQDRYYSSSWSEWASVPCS

[2] = target: recombinant human IL-23 (human) (UniProt Q9NPF7); test: KinExA

binding [1]: binds
B1: Antibody L (antibody, V domains shown)
VH: QVQLVESGGGVVQPGRSLRLSCAASGFTFSSYAMHWVRQAPGKGLEWLSVISHDGSIKYYADSVKGRFTISRDNSKNTLYLQMNSLRAEDTAVYYCARERTTLSGSYFDYWGQGTLVTVSS
VL: QAVLTQPSSLSASPGASASLTCTLRSGINVGTYRIYWYQQKPGSPPQYLLRYKSDSDKQQGSGVPSRFSGSKDASANAGILLISGLQSEDEADYYCMIWHSSASVFGGGTKLTVL
notes: also called VH4/VL4

binding [2]: binds
B2: Antibody B (antibody, V domains shown)
VH: QVQLQESGPGLVKPSQTLSLTCTVSGGSISSGGYYWSWIRQHPGKGLEWIGHIHYSGNTYYNPSLKSRVTISVDTSKNQFSLKLSSVTAADTAVYYCAKNRGFYYGMDVWGQGTTVTVSS
VL: DIQMTQSPSSVSASVGDRVTITCRASQVISSWLAWYQQKPGKAPSLLIYAASSLQSGVPSRFSGSVSGTDFTLTISSLQPEDFATYYCQQANSFPFTFGPGTKVDFK
notes: also called VH9/VL9

binding [1]: binds
B3: Antibody G (antibody, V domains shown)
VH: QVQLQESGPRLVKPSETLSLTCTVSGDSISSYFWSWIRQPPGKGLEWLGYIYYSGSTNYNPSLKSRVTISIDTSKNQFSLKLSSVTAADTAVYYCTRDRGSYYGSDYWGQGTLVTVSS
VL: B2 VL with S26G, S45K, V66G, E81D, N92T, F96L, P100G, D105E, F106I
notes: also called VH12/VL12
